# Data as given in PubChem BioAssay AID1117272 (Broad Institute, 2014).
# The list shows a part of the results. Results with a measured potency or affinity are listed apart. Entries without a call are filed as inconclusive in the source.
# Experiment: PubChem AID 1117272
# Conditions: orthopoxvirus-infected cells, late gene fluorescent reporter; at 10 µM (top of the series)
smiles,measurement,value
COc1ccccc1-c1ccc(CN(C)C[C@@H]2Oc3cc(C#C[C@@H](C)O)ccc3S(=O)(=O)N([C@@H](C)CO)C[C@@H]2C)cc1,"activity change, negative = inhibition",40.5%
